Reference: PMC8192900, “Label-free high-throughput screening assay for the identification of norepinephrine transporter (NET/SLC6A2) inhibitors” (Scientific Reports, 2021)

Tested on: JumpIn-NET cells
Assay: Effect of NET inhibitor alone on normalized Cell Index during 1 h pretreatment (xCELLigence)
Format: cell-based, human
Settings: 10 µM, +dox JumpIn-NET cells

CN1C2CCC1CC(OC(c1ccccc1)c1ccccc1)C2.CS(=O)(=O)O (centres unmarked) [Benztropine, Benztropine mesylate]
Effect on nCI during pretreatment at highest tested concentration: transient increase in nCI

CNCCCC12CCC(c3ccccc31)c1ccccc12.Cl [Maprotiline, maprotiline hydrochloride]
Effect on nCI during pretreatment at highest tested concentration: transient increase in nCI
